The source of these data is patent US20050142634A1, “Novel modulator of non-genomic activity of nuclear receptors (mnar) and uses thereof” (Wyeth, priority 2001, published 2005).

Chains of the proteins cited; added tags and fusions are not shown. Residues count along the entry.
UniProt Q92731, residues 248-530: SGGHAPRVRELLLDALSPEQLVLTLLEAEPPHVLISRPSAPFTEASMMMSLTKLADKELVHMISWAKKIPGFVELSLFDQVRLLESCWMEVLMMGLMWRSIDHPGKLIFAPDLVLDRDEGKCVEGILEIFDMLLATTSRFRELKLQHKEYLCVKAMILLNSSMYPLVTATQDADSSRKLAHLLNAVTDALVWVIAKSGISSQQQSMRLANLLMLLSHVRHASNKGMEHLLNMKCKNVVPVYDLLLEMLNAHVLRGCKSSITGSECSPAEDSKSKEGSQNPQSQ
UniProt Q15648: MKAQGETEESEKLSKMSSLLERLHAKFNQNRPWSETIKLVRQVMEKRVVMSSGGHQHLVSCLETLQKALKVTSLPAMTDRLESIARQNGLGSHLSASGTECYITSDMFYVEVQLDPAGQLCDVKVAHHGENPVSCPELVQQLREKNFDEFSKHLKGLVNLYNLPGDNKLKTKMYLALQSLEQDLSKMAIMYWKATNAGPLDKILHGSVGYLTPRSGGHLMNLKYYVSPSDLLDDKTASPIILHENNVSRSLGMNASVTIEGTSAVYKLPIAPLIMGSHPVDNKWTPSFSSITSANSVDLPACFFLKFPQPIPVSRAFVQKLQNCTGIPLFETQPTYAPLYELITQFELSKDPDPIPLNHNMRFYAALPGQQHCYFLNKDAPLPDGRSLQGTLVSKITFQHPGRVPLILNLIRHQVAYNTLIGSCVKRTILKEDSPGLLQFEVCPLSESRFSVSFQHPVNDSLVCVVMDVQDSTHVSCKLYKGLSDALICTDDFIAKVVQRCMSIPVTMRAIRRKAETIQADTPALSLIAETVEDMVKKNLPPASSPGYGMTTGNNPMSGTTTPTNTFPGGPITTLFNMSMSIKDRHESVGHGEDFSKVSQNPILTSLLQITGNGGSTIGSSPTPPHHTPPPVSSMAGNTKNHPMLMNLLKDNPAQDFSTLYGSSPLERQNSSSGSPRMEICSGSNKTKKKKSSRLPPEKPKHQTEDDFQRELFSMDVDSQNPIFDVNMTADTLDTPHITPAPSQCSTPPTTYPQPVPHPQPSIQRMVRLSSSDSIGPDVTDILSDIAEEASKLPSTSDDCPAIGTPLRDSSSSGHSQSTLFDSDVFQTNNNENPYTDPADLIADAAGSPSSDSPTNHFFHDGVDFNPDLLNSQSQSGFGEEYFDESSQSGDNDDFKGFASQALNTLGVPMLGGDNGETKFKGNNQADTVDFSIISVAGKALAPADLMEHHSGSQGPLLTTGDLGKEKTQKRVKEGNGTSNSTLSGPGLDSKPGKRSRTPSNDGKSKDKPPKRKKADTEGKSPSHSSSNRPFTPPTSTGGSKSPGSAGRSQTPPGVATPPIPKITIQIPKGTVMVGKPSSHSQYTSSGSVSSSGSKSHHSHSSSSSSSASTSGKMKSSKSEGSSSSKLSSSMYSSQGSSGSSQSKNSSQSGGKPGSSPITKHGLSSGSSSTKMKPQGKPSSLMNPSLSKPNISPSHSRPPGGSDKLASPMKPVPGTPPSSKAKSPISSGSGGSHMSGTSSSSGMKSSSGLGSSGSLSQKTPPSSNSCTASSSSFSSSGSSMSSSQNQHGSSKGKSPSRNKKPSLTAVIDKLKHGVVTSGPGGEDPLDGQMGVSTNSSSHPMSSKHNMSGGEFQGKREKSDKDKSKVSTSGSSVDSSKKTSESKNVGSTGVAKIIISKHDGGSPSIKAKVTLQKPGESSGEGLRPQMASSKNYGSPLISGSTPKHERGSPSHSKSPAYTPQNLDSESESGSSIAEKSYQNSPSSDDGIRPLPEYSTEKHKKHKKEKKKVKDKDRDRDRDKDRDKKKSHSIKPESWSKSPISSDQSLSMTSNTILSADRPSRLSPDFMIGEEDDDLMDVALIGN
UniProt Q9Y6Q9, residues 2-1424: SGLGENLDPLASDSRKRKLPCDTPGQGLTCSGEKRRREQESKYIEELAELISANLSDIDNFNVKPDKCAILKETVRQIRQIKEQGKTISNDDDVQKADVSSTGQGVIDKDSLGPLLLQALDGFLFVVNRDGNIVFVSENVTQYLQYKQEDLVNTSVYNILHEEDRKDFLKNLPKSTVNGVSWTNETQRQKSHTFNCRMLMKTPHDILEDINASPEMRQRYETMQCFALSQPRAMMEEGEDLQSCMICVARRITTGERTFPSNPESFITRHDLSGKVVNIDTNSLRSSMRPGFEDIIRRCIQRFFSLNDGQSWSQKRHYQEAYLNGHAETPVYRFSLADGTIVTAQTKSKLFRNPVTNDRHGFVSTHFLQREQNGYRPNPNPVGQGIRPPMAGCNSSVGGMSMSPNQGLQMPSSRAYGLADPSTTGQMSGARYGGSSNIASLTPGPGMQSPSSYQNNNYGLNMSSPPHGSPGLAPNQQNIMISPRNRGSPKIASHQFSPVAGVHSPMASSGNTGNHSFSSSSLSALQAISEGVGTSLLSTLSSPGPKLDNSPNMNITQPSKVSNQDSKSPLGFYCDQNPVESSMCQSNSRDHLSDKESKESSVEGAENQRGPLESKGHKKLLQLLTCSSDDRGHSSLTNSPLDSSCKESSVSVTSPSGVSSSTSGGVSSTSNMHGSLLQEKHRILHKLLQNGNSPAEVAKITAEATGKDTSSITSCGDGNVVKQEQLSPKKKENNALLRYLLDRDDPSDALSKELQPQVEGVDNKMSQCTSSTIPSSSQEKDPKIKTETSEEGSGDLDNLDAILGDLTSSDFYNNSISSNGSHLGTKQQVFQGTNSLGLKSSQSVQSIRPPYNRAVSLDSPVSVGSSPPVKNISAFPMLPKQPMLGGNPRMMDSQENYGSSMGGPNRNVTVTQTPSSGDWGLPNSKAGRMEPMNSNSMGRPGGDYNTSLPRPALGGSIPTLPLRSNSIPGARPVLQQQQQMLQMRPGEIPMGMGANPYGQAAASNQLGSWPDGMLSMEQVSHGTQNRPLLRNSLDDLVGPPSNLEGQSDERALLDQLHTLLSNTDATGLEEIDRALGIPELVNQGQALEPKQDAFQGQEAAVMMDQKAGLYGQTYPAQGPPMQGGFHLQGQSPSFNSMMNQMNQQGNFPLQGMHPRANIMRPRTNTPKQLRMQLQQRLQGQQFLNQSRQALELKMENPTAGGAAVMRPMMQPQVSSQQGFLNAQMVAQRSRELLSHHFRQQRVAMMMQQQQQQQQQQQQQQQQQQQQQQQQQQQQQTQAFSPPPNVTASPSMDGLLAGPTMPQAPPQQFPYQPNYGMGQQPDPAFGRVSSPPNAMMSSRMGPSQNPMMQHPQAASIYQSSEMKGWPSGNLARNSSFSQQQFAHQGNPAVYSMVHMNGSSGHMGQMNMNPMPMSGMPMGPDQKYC

This assay addresses GST-ERβ-LBD (UniProt Q92731). Description: GST pull-down from MCF-7 cell extract; bands with ligand-dependent interaction identified by mass spectrometry.

Results are given in words; binding and its absence hold for the method and conditions named. In cells and extracts the contact can be indirect. These calls come from enrichment with a bait or labelling near it, and not all partners need be listed.

Consider DRIP205 (from UniProt Q15648 1-1581), for which the binding entry was “binds”.

For SRC3 (from UniProt Q9Y6Q9 2-1424), the binding entry is recorded as “binds”.
